PubChem BioAssay AID1259254 – NCATS – 2017

- Aim: 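Finding genes that stop cells copying their DNA twice in one cycle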 (primary screen)
- Cells: human HCT116 colorectal cancer cells
- Reagent: single siRNA against human genes
- Timing: 3 days
- Detection: 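Imaged Hoechst DNA stain sorts each cell into a cycle phase by DNA amount; per plate, G2 fraction set to 0% for non-targeting and 100% for GMNN siRNA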
- Direction: G2 robust z-score: higher = more G2 cells, more excess DNA replication
- Call rule: 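Active siRNAs have a G2 robust z of 5 or more median absolute deviations over the median, which in these data means about 38% or higher of GMNN control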
The deposit covers about 59,000 reagents; shown is an unselected part. About 1,550 of them (2.6%) count as active. 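G2 share is only a proxy for re-replication; each gene was hit by three separate siRNAs, and active genes were retested.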 The numbers tell different reagents against one gene apart. Not all columns of the deposit are shown. Reagent sequences are not shown. Not stated in the record: the amount of reagent.

no.	gene symbol	reagent	G2 robust z-score	Outcome
1	SOSTDC1 (sclerostin domain containing 1)	1	2.83	inactive
2	SOSTDC1 (sclerostin domain containing 1)	2	-0.316	inactive
3	SOSTDC1 (sclerostin domain containing 1)	3	-1.04	inactive
4	ATP2C2 (ATPase secretory pathway Ca2+ transporting 2)	1	-2.04	inactive
5	ATP2C2 (ATPase secretory pathway Ca2+ transporting 2)	2	-0.285	inactive
6	ATP2C2 (ATPase secretory pathway Ca2+ transporting 2)	3	-0.228	inactive
7	PRDM7 (PR/SET domain 7)	1	0.884	inactive
8	PRDM7 (PR/SET domain 7)	2	-0.616	inactive
9	PRDM7 (PR/SET domain 7)	3	-0.5	inactive
10	TMEM63C (transmembrane protein 63C)	1	-0.21	inactive
11	TMEM63C (transmembrane protein 63C)	2	-0.555	inactive
12	TMEM63C (transmembrane protein 63C)	3	1.61	inactive
13	DHFR (dihydrofolate reductase)	1	-1.62	inactive
14	DHFR (dihydrofolate reductase)	2	-0.778	inactive
15	DHFR (dihydrofolate reductase)	3	-0.603	inactive
16	SRR (serine racemase)	1	8.2	active
17	SRR (serine racemase)	2	2.53	inactive
18	SRR (serine racemase)	3	-0.528	inactive
19	SERPIND1 (serpin family D member 1)	1	0.166	inactive
20	SERPIND1 (serpin family D member 1)	2	-0.573	inactive
21	SERPIND1 (serpin family D member 1)	3	-0.358	inactive
22	MAGEB16 (MAGE family member B16)	1	-0.409	inactive
23	MAGEB16 (MAGE family member B16)	2	-0.367	inactive
24	MAGEB16 (MAGE family member B16)	3	1.01	inactive
25	NR1H3 (nuclear receptor subfamily 1 group H member 3)	1	2.9	inactive
26	NR1H3 (nuclear receptor subfamily 1 group H member 3)	2	-1.18	inactive
27	NR1H3 (nuclear receptor subfamily 1 group H member 3)	3	-0.354	inactive
28	PPP3CC (protein phosphatase 3 catalytic subunit gamma)	1	8.48	active
29	PPP3CC (protein phosphatase 3 catalytic subunit gamma)	2	-1.3	inactive
30	PPP3CC (protein phosphatase 3 catalytic subunit gamma)	3	0.201	inactive
31	LINC00602 (long independently transcribed non-coding RNA 602)	1	-0.399	inactive
32	LINC00602 (long independently transcribed non-coding RNA 602)	2	1.62	inactive
33	LINC00602 (long independently transcribed non-coding RNA 602)	3	-0.808	inactive

Called active, of those listed so far:
gene symbol	reagent	G2 robust z-score	Outcome
SRR (serine racemase)	1	8.2	active
PPP3CC (protein phosphatase 3 catalytic subunit gamma)	1	8.48	active

The list goes on.
no.	gene symbol	reagent	G2 robust z-score	Outcome
34	TSPAN32 (tetraspanin 32)	1	-0.138	inactive
35	TSPAN32 (tetraspanin 32)	2	-0.255	inactive
36	TSPAN32 (tetraspanin 32)	3	5.5	active
37	PRSS33 (serine protease 33)	1	5.05	active
38	PRSS33 (serine protease 33)	2	1.14	inactive
39	PRSS33 (serine protease 33)	3	0.647	inactive
40	GZMH (granzyme H)	1	-0.97	inactive
41	GZMH (granzyme H)	2	-0.0588	inactive
42	GZMH (granzyme H)	3	-0.902	inactive
43	NDUFA10 (NADH:ubiquinone oxidoreductase subunit A10)	1	-0.362	inactive
44	NDUFA10 (NADH:ubiquinone oxidoreductase subunit A10)	2	0.209	inactive
45	NDUFA10 (NADH:ubiquinone oxidoreductase subunit A10)	3	1.09	inactive
46	TBX19 (T-box transcription factor 19)	1	2.57	inactive
47	TBX19 (T-box transcription factor 19)	2	-0.868	inactive
48	TBX19 (T-box transcription factor 19)	3	-0.336	inactive
49	RTL8B (retrotransposon Gag like 8B)	1	-0.129	inactive
50	RTL8B (retrotransposon Gag like 8B)	2	0.698	inactive
51	RTL8B (retrotransposon Gag like 8B)	3	0.912	inactive
52	MRPL48 (mitochondrial ribosomal protein L48)	1	0.12	inactive
53	MRPL48 (mitochondrial ribosomal protein L48)	2	1.79	inactive
54	MRPL48 (mitochondrial ribosomal protein L48)	3	-0.428	inactive
55	DCUN1D5 (defective in cullin neddylation 1 domain containing 5)	1	2.11	inactive
56	DCUN1D5 (defective in cullin neddylation 1 domain containing 5)	2	0.056	inactive
57	DCUN1D5 (defective in cullin neddylation 1 domain containing 5)	3	-0.062	inactive
58	CYBB (cytochrome b-245 beta chain)	1	-0.397	inactive
59	CYBB (cytochrome b-245 beta chain)	2	2.05	inactive
60	CYBB (cytochrome b-245 beta chain)	3	0.00675	inactive
61	MYF5 (myogenic factor 5)	1	3.39	inactive
62	MYF5 (myogenic factor 5)	2	-0.836	inactive
63	MYF5 (myogenic factor 5)	3	2.78	inactive
64	METTL2A (methyltransferase 2A, tRNA N3-cytidine)	1	0.484	inactive
65	METTL2A (methyltransferase 2A, tRNA N3-cytidine)	2	1.21	inactive
66	METTL2A (methyltransferase 2A, tRNA N3-cytidine)	3	0.783	inactive
67	NPBWR1 (neuropeptides B and W receptor 1)	1	0.173	inactive
68	NPBWR1 (neuropeptides B and W receptor 1)	2	-1.1	inactive
69	NPBWR1 (neuropeptides B and W receptor 1)	3	-0.422	inactive
70	TPSAB1 (tryptase alpha/beta 1)	1	-1.43	inactive
71	TPSAB1 (tryptase alpha/beta 1)	2	-0.0918	inactive
72	TPSAB1 (tryptase alpha/beta 1)	3	0.338	inactive
73	TEX44 (testis expressed 44)	1	-0.463	inactive
74	TEX44 (testis expressed 44)	2	0.362	inactive
75	TEX44 (testis expressed 44)	3	0.926	inactive
76	EDC3 (enhancer of mRNA decapping 3)	1	-0.936	inactive
77	EDC3 (enhancer of mRNA decapping 3)	2	0.301	inactive
78	EDC3 (enhancer of mRNA decapping 3)	3	0.823	inactive
79	SLC5A10	1	1.67	inactive
80	SLC5A10	2	-1.21	inactive
81	SLC5A10	3	6.17	active
82	CENPX (centromere protein X)	1	-0.272	inactive
83	CENPX (centromere protein X)	2	0.688	inactive
84	CENPX (centromere protein X)	3	0.287	inactive
85	OR51B2 (olfactory receptor family 51 subfamily B member 2)	1	0.538	inactive
86	OR51B2 (olfactory receptor family 51 subfamily B member 2)	2	-0.961	inactive
87	OR51B2 (olfactory receptor family 51 subfamily B member 2)	3	-0.752	inactive
